According to article PMC3694890:
No constants are given. Whether binding was seen depends on the method and setting. For part of these data: In cells and extracts the contact can be indirect. Some results given as binding are weak or reduced against the parent protein; the word gives no strength.

The chains behind the UniProt entries cited, without tags or fusion partners. Where a name states a change or a piece, a line headed by the entry shows the natural chain unless it says otherwise. Residues count along the entry.
UniProt O43561: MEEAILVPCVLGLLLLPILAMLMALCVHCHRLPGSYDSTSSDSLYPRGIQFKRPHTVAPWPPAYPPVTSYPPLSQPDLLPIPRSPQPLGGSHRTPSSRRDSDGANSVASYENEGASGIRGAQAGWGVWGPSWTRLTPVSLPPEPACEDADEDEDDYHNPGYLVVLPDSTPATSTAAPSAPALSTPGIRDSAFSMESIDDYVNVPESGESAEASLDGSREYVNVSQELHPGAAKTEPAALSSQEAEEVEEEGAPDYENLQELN
UniProt P17948, residues 27-1338: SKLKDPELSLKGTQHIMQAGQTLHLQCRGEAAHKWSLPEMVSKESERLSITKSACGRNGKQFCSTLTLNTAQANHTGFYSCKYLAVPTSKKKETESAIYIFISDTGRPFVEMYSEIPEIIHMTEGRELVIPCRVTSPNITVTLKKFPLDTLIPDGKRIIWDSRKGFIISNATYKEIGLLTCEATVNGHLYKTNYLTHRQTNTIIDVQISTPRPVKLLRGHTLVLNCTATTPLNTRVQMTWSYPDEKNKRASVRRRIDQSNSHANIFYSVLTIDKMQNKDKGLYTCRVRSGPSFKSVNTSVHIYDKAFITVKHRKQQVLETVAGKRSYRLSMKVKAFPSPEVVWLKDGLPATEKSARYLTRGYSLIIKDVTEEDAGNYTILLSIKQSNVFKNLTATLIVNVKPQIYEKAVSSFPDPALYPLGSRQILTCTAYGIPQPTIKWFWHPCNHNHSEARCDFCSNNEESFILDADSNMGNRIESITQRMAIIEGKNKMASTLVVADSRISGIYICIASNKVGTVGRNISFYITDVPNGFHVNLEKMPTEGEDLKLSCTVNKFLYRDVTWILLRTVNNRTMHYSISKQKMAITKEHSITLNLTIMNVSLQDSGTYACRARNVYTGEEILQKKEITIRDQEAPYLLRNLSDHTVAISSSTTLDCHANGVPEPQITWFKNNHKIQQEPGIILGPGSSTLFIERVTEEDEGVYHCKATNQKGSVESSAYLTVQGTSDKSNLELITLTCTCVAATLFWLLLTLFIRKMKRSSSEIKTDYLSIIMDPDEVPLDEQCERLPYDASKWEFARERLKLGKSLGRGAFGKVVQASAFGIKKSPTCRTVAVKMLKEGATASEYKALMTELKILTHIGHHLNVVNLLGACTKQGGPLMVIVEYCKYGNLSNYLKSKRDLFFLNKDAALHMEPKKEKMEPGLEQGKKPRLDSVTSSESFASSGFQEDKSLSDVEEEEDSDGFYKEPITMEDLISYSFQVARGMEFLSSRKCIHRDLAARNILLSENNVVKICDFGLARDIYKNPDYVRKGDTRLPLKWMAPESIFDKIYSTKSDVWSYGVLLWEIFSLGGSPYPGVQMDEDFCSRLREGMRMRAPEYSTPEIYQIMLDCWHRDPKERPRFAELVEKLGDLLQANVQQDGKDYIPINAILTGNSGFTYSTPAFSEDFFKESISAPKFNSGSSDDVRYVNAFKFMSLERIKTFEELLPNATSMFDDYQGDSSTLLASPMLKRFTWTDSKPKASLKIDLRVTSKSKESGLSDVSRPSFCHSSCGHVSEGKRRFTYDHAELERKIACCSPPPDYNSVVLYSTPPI
UniProt P62993: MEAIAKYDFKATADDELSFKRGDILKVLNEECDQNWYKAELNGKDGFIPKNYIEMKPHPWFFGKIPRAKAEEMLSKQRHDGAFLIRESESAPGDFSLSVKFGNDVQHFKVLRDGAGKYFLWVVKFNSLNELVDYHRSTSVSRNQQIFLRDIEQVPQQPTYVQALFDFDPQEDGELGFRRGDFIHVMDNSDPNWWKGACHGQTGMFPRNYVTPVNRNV

What was measured:
[1] = target: T1, FLT3_969 tyrosine phosphopeptide probe (human); experiment: peptide or protein array; total protein of cell lysate (1 mg in 1 mL) of MCF10A, MCF7, T47D or MDA-MB231 over a chip with 160 pY peptide probes (10 replicates, alanine controls), overnight at 4°C; bound GRB2 detected with rabbit anti-GRB2 and Alexa 647 secondary antibody; only the target purified
T1 sequence (peptide, phosphotyrosine at the N-terminus (Y969)): YQNRRP

[2] = target: T2, ETV6_314 tyrosine phosphopeptide probe (human); experiment: as above
T2 sequence (peptide, phosphotyrosine at the N-terminus (Y314)): YMNHIM

[3] = target: T3, PILRA_246 tyrosine phosphopeptide probe (human); experiment: as above
T3 sequence (peptide, phosphotyrosine at the N-terminus (Y246)): YENIRN

[4] = target: T4, FAK1_925 tyrosine phosphopeptide probe (human); experiment: as above
T4 sequence (peptide, phosphotyrosine at the N-terminus (Y925)): YENVTG

[5] = target: T5, TNFL6_258 tyrosine phosphopeptide probe (human); experiment: as above
T5 sequence (peptide, phosphotyrosine at the N-terminus (Y258)): YVNVSE

[6] = target: T6, FLT3_955 tyrosine phosphopeptide probe (human); experiment: as above
T6 sequence (peptide, phosphotyrosine at the N-terminus (Y955)): YQNVDG

[7] = target: T7, LAT_255 tyrosine phosphopeptide probe (human) (UniProt O43561); experiment: as above
T7 sequence (peptide, phosphotyrosine at the N-terminus (Y255)): YENLQE

[8] = target: T8, LAT_220 tyrosine phosphopeptide probe (human); experiment: as above
T8 sequence (peptide, phosphotyrosine at the N-terminus (Y220)): YVNVSQ

[9] = target: VEGFR1 pY1213 (endogenous phosphoprotein) (human (endogenous in MCF10A, T47D)) (UniProt P17948); experiment: co-IP; endogenous complexes precipitated from 1 mg of total protein of cell lysate with phosphospecific antibodies overnight at 4°C, protein A/G Dynabeads; blotted with mouse monoclonal anti-GRB2

Measured: binding

GRB2 (endogenous, from cell lysates) (from UniProt P62993 1-217)
binds: all assays above
